Laboratory results taken from article PMC9525694.
These are yes or no findings as the source states them, for the method shown. For some assays here: Binding seen in cells or lysates may run through a third protein. Some results given as binding are weak or reduced against the parent protein; the word gives no strength. For some assays here: Sequences can lack the tags named with a protein.

Legend:
[1] = target: T1, voltage-dependent anion channel 2 (VDAC2) (human (endogenous in HeLa)), P45880; assay: native gel or EMSA; BN-PAGE (6-16.5% gradient, 4 °C) of mitochondria from uninfected Bax-deficient HeLa cells without tBid, lysed in 1% digitonin; Western blot for Bak and VDAC; conditions: remark: other sources report otherwise
T1 chain: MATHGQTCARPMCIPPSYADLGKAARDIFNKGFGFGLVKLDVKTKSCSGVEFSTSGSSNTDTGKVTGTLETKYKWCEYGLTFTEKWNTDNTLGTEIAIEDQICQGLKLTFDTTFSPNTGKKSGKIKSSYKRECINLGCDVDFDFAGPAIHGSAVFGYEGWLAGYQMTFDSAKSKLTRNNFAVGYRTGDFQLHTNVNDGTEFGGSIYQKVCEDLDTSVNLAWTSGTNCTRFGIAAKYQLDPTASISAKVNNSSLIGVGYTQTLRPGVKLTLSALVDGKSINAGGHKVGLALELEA

[2] = target: T2, Bak (human (endogenous in HeLa)), Q16611; assay: cross-linking; mitochondria isolated from HeLa cells (Bax-deficient, uninfected or Ctr-infected; GFP- or OmpA-expressing) treated with recombinant tBid; cysteine cross-linker BMH 0.5 mM, 30 min, room temperature; Western blot for Bak; conditions: remark: other sources report otherwise
T2 chain: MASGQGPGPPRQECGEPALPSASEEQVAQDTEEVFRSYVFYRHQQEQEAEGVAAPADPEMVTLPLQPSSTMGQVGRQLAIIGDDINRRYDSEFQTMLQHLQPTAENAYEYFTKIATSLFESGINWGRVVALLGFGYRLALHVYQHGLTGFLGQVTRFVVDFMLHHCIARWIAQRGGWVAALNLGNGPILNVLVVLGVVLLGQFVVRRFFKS

binding [1]: binds
binding [2]: binds
B1: Bak, Q16611 1-211 (natural protein)
chain: T2 chain
